# Data taken from ChEMBL document CHEMBL1914305, “Synthesis and structure-activity evaluation of isatin-β-thiosemicarbazones with improved selective activity toward multidrug-resistant cells expressing P-glycoprotein” (J Med Chem, 2011).
# Assays:
# [1] = test system: MDA-MB-231; experiment: Cytotoxicity against human MDA-MB-231 cells after 72 hrs by MTT assay; format: functional, cell-based; conditions: MDA-MB-231, 72 h
# Method in brief: (§1)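 Lines grown in RPMI with 10% FBS and 2 mM L-glutamine. MTT assay: 4000 cells/well attached 24 h before serially diluted drug, then 72 h exposure at 37 °C, 5% CO2. MTT in IMDM 4 h, lysis in acidified ethanol 15 min, absorbance 570 nm minus 690 nm. IC50 is the concentration halving untreated absorbance. Three independent experiments, each in triplicate.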
# [2] = test system: MDA-MB-231; experiment: Cytotoxicity against human MDA-MB-231 cells selected at 100 ug/ml vinblastine after 72 hrs by MTT assay; format: functional, cell-based; conditions: MDA-MB-231, 72 h; method in brief: as §1
smiles,measurement,setting,value
COc1cccc2c1C(=O)c1c(O)c3c(c(O)c1C2=O)C[C@@](O)(C(=O)CO)C[C@@H]3O[C@H]1C[C@H](N)[C@H](O)[C@H](C)O1 [DOXORUBICIN],IC50,[1],390 nM
same,IC50,[2],3060 nM
